From publication PMC10202183

The chains behind the UniProt entries cited, without tags or fusion partners.
UniProt Q13283: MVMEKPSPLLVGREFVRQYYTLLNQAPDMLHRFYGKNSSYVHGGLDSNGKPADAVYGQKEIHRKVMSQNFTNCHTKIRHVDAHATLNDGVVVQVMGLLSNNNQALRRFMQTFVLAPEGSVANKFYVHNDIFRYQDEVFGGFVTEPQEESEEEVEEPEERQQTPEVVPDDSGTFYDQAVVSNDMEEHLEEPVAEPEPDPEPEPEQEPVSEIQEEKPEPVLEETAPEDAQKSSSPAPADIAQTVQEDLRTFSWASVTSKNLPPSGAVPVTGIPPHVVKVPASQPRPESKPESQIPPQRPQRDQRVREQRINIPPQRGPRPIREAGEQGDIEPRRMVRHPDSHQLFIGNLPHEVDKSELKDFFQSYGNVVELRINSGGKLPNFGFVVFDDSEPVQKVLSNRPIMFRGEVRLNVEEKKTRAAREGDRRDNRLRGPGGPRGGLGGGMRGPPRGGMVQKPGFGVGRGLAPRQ

Molecular target: T1, C-terminally GFP-tagged SERBP1 (SERPINE1 mRNA binding protein 1), full length (human) (UniProt Q8NC51)
T1 sequence: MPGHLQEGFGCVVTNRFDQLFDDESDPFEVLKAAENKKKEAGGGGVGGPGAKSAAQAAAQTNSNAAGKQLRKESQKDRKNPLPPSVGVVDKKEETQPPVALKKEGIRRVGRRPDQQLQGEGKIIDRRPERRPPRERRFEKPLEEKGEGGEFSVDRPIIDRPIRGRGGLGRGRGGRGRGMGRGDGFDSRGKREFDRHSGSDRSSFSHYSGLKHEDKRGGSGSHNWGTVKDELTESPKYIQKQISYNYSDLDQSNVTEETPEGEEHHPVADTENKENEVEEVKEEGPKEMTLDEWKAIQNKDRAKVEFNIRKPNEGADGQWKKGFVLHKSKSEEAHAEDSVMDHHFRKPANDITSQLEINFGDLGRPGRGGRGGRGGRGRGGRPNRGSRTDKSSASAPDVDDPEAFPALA
Assay: affinity purification with mass spectrometry; anti-GFP IP of GFP-SERBP1 from HEK293 lysate against GFP empty vector; SDS-PAGE, silver staining, LC-MS/MS

binding: binds
Substance: G3BP1, endogenous in HEK293 cells (from UniProt Q13283 1-466)

No constants are given. Whether binding was seen depends on the method and setting. In cells and extracts the contact can be indirect. These calls come from enrichment with a bait or labelling near it, and not all partners need be listed. Where a sequence is shown, tags or fusion partners need not be part of it.
